Results: publication PMC8384837
The list shows a part of the results. The source does not settle which construct or isoform was used.

Target: T1, PUM1 PUF domain R5-PHQ R6-SWD C1007P + R1008H + N1043S + Y1044W + Q1047D (UniProt Q14671)
T1 sequence: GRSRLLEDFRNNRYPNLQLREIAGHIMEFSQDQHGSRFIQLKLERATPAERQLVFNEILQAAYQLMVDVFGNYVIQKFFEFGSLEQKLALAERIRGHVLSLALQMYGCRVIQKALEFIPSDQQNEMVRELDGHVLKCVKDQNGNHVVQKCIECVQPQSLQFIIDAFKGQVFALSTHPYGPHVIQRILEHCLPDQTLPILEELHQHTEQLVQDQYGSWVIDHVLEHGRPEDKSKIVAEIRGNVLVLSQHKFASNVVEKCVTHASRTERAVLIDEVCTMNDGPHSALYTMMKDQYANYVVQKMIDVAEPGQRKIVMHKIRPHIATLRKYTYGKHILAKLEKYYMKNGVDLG
Settings: yeast three-hybrid, YBZ-1, SC-Leu-His + 0.5 mM 3-AT, 4 days

Row | Sequence | binding signal (log2 enrichment (interaction score))
1 | GGCUAGAACUAGUGGAUCCCCCGGCGCCCGGCGGCUCGAGCCCGGGUAAGAUGAGGAAGUCUGCAUGCCGCCGGGCGCCAUGCCUGCAGGUCGACUCUAGAAAACAUG | -7.71
2 | GGCUAGAACUAGUGGAUCCCCCGGCGCCCGGCGGCUCGAGCCCGGGUAAGCAGAAAAGGUCUGCAUGCCGCCGGGCGCCAUGCCUGCAGGUCGACUCUAGAAAACAUG | < -7.76
3 | GGCUAGAACUAGUGGAUCCCCCGGCGCCCGGCGGCUCGAGCCCGGGUAAGUUGGGAUCGUCUGCAUGCCGCCGGGCGCCAUGCCUGCAGGUCGACUCUAGAAAACAUG | < -7.08
4 | GGCUAGAACUAGUGGAUCCCCCGGCGCCCGGCGGCUCGAGCCCGGGUAAGUGCAACUGGUCUGCAUGCCGCCGGGCGCCAUGCCUGCAGGUCGACUCUAGAAAACAUG | -7.13
5 | GGCUAGAACUAGUGGAUCCCCCGGCGCCCGGCGGCUCGAGCCCGGGUAAGGGAAAAGUGUCUGCAUGCCGCCGGGCGCCAUGCCUGCAGGUCGACUCUAGAAAACAUG | -7.49
6 | GGCUAGAACUAGUGGAUCCCCCGGCGCCCGGCGGCUCGAGCCCGGGUAAGAUUAAGAAGUCUGCAUGCCGCCGGGCGCCAUGCCUGCAGGUCGACUCUAGAAAACAUG | < -7.53

Exported as tab-separated lines: part of the list above
Row	Sequence	binding signal (log2 enrichment (interaction score))
2	GGCUAGAACUAGUGGAUCCCCCGGCGCCCGGCGGCUCGAGCCCGGGUAAGCAGAAAAGGUCUGCAUGCCGCCGGGCGCCAUGCCUGCAGGUCGACUCUAGAAAACAUG	< -7.76
3	GGCUAGAACUAGUGGAUCCCCCGGCGCCCGGCGGCUCGAGCCCGGGUAAGUUGGGAUCGUCUGCAUGCCGCCGGGCGCCAUGCCUGCAGGUCGACUCUAGAAAACAUG	< -7.08
